Patent US20030092631A1 (Genentech, published 2003)
Results are given in words; binding and its absence hold for the method and conditions named. Some results given as binding are weak or reduced against the parent protein; the word gives no strength.

Protein sequences, listed by entry. Tags and fused reporters are not part of them. Residues count along the entry.
UniProt P05019, residues 49-118: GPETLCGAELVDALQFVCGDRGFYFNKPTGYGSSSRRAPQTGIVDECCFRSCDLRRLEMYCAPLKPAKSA

Biological target: IGF-1 (human, UniProt P05019 49-118)
Experiment: phage ELISA, IGF-1 on plate
Procedure: From each round, individual peptide-displaying phage were isolated and analyzed for binding to IGF-1 in a phage ELISA by capturing the peptide-phage with IGF-1 immobilized on a plate, and detecting bound phage (see below). As a control for non-specific binding, the phage were also analyzed in a phage ELISA that used plates coated with BSA. […]
MAXISORP™ immunoplates (96-well) were coated with capture target protein for 2 hours at room temperature (100 μL at 5 μg/mL in 50 mM carbonate buffer, pH 9.6). The plates were then blocked for 1 h with 0.2% BSA in phosphate-buffered saline (PBS) and washed eight times with PBS, 0.05% TWEEN®-20 detergent. Phage particles were serially diluted into BSA blocking buffer and 100 μL were transferred to coated wells. After I h, plates were washed eight times with PBS, 0.05% TWEEN®-20 detergent, incubated with 100 μL of 1:3000 horse radish peroxidase/anti-M 13 antibody conjugate in BSA blocking buffer for 30 min. and then washed eight times with PBS, 0.05% TWEEN®-20 detergent and two times with PBS. Plates were developed using a tetramethylbenzidine substrate (TMB, Kirkegaard and Perry, Gaithersburg, Md.), stopped with 1.0 M H3PO₄, and read spectrophotometrically at 450 nm.

… (from UniProt P01241 27-217) (peptide)
binding: binds
